From PMC11633057, “Targeting MarA N‐terminal domain dynamics to prevent DNA binding”

Columns and labels:
Assay in all cases: EMSA
[1] = target: T1, MarA S62C/L121C S60C,L119C (Escherichia coli MG1655) (UniProt P0ACH5); conditions: no DTT (disulfide), EMSA: 20 mM Hepes pH 8, 100 mM MgCl2, 100 mM EDTA, 0.3 mg/mL BSA, 0.8 uM MarA, DNA 15 nM (200 bp) or 200 nM (30 bp), 20 min 37 C, 8% native gel, SYBR green, recombinant protein, protein details: N-terminal 6xHis (pET-15b), probe letters rebuilt from the primers and the genome
T1 sequence (looked up, limits assumed): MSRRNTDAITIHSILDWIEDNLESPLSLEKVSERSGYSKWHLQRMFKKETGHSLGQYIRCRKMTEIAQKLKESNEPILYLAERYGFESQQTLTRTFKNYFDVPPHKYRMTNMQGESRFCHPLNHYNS

[2] = target: T2, MarA I13C/M47C I11C,M45C (Escherichia coli MG1655) (UniProt P0ACH5); conditions: no DTT (disulfide), EMSA: 20 mM Hepes pH 8, 100 mM MgCl2, 100 mM EDTA, 0.3 mg/mL BSA, 0.8 uM MarA, DNA 15 nM (200 bp) or 200 nM (30 bp), 20 min 37 C, 8% native gel, SYBR green, recombinant protein, protein details: N-terminal 6xHis (pET-15b), probe letters rebuilt from the primers and the genome
T2 sequence (looked up, limits assumed): T1 sequence (looked up, limits assumed) with I11C, M45C, C60S, C119L

[3] = target: T3, MarA I13C/M47C, His-tag cleaved I11C,M45C (Escherichia coli MG1655) (UniProt P0ACH5); conditions: pattern similar to His-tagged; EMSA: 20 mM Hepes pH 8, 100 mM MgCl2, 100 mM EDTA, 0.3 mg/mL BSA, +/- DTT, 0.8 uM MarA, DNA 15 nM (200 bp) or 200 nM (30 bp), 20 min 37 C, 8% native gel, SYBR green; recombinant protein
T3 sequence (looked up, limits assumed): T1 sequence (looked up, limits assumed) with I11C, M45C, C60S, C119L

[4] = target: T4, MarA WT, His-tag cleaved (Escherichia coli MG1655) (UniProt P0ACH5); conditions: pattern similar to His-tagged; EMSA: 20 mM Hepes pH 8, 100 mM MgCl2, 100 mM EDTA, 0.3 mg/mL BSA, +/- DTT, 0.8 uM MarA, DNA 15 nM (200 bp) or 200 nM (30 bp), 20 min 37 C, 8% native gel, SYBR green; recombinant protein
T4 sequence (looked up, limits assumed): T1 sequence (looked up, limits assumed) with C60S, C119L

[5] = target: T5, MarA I16C/M47C, His-tag cleaved I14C,M45C (Escherichia coli MG1655) (UniProt P0ACH5); conditions: pattern similar to His-tagged, EMSA: 20 mM Hepes pH 8, 100 mM MgCl2, 100 mM EDTA, 0.3 mg/mL BSA, 0.8 uM MarA, DNA 15 nM (200 bp) or 200 nM (30 bp), 20 min 37 C, 8% native gel, SYBR green, recombinant protein
T5 sequence (looked up, limits assumed): T1 sequence (looked up, limits assumed) with I14C, M45C, C60S, C119L

[6] = target: T6, MarA I16C/M47C I14C,M45C (Escherichia coli MG1655) (UniProt P0ACH5); conditions: no DTT (disulfide), EMSA: 20 mM Hepes pH 8, 100 mM MgCl2, 100 mM EDTA, 0.3 mg/mL BSA, 0.8 uM MarA, DNA 15 nM (200 bp) or 200 nM (30 bp), 20 min 37 C, 8% native gel, SYBR green, recombinant protein, protein details: N-terminal 6xHis (pET-15b)
T6 sequence (looked up, limits assumed): T1 sequence (looked up, limits assumed) with I14C, M45C, C60S, C119L

Sequence	binding result [1]	binding result [2]	binding result [3]	binding result [4]	binding result ([5]; no DTT)	binding result ([5]; with DTT)	binding result [6]
GTTATCCTGTGTATCTGGGTTATCAGCGAAAAGTATAAGGGGTAAACAAGGATAAAGTGTCACTCTTTAGCTAGCCTTGCATCGCATTGAACAAAACTTGAACCGATTTAGCAAAACGTGGCATCGGTCAATTCATTCATTTGACTTATACTTGCCTGGGCAATATTATCCCCTGCAACTAATTACTTGCCAGGGCAAC (double strand) [marRAB 200-bp fragment]	binds	binds	–	–	–	–	–
CTTCTTGTTTGGTTTTTCGTGCCATATGTTC (double strand) [acrAB short marbox (called 30-bp)]	–	–	binds	binds	no binding	binds	–
GAACCGATTTAGCAAAACGTGGCATCGGTC (double strand) [marRAB 30-bp marbox]	–	–	binds	binds	no binding	binds	no binding

Where a chain is given by its changes, count along the chain named. The exact form of at least one protein or probe is not confirmed. For some assays here: A negative result means that nothing was seen under these conditions. For some assays here: At least one verdict was read from the data and is not stated in words by the source. Tags and fusion partners may be left off the protein sequences shown.
